Test in all cases: pull-down; only the target purified
The target of assay [1] is GST-tagged C terminal domain of polyadenylate-binding protein 1 (human) (UniProt P11940).
Assay [2] deals with GST-tagged Mu homology domain of the AP-2 subunit mu (human) (UniProt Q96CW1).
In assay [3] the target is T1, GST-tagged GAE domain of GGA3 (human) (UniProt Q9NZ52).
T1 sequence: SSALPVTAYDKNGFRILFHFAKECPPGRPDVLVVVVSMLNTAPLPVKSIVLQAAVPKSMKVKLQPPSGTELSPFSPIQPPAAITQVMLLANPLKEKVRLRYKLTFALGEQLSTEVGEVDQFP

Amino acid sequences for entries named in this document (tags omitted). Residues count along the entry.
UniProt P11940, residues 544-623: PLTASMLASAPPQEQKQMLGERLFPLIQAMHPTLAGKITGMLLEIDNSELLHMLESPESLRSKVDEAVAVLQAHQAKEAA
UniProt Q96CW1, residues 170-434: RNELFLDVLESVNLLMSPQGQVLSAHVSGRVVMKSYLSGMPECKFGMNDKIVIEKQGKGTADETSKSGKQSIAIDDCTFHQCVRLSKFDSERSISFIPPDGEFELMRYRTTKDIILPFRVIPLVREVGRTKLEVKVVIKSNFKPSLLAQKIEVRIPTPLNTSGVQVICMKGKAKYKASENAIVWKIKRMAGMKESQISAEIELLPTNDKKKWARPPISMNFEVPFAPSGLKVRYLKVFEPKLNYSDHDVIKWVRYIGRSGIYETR
UniProt O55778: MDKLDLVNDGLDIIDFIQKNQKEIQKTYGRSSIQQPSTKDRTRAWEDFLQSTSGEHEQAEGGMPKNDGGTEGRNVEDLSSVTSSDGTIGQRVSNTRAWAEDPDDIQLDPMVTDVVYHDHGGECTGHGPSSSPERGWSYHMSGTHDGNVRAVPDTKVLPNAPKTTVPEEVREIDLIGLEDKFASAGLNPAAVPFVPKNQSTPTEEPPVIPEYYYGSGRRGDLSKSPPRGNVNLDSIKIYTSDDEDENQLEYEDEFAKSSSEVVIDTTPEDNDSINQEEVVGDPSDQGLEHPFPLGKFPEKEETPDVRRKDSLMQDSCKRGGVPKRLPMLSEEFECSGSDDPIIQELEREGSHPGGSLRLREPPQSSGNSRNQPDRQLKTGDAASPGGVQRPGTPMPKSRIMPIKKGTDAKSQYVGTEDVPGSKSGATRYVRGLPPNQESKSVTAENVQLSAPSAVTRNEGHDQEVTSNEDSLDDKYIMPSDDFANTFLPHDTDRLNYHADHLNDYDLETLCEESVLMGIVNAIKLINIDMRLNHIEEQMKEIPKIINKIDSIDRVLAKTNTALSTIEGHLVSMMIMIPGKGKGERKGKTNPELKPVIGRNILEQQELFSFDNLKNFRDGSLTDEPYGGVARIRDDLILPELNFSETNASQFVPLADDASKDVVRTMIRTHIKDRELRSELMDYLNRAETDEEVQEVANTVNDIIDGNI
UniProt P18272: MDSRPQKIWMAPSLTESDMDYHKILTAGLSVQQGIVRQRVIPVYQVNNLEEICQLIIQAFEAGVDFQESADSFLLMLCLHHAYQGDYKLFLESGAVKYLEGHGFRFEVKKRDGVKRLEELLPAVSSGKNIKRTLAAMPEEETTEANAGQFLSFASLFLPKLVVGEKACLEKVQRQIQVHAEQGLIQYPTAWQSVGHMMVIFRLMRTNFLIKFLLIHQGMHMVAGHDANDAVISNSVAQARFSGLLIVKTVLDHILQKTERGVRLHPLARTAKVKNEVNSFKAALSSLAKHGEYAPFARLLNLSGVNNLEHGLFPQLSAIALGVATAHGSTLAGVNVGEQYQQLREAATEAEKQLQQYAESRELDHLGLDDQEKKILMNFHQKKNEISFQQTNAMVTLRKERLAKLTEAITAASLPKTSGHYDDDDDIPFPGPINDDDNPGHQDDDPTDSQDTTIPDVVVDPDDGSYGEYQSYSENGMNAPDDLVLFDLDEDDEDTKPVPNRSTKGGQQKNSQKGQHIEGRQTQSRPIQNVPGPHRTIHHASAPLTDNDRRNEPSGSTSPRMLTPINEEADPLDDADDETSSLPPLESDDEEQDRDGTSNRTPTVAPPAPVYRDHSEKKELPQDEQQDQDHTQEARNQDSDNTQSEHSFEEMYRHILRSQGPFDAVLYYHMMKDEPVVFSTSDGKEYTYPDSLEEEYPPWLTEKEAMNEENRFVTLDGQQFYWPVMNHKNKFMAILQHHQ

Among the data in paper PMC10132805 are binding values, retold here.

No constants are given. Whether binding was seen depends on the method and setting. In cells and extracts the contact can be indirect. Some entries that bind do so weakly or less than the wild type. For part of these data: Where a sequence is shown, tags or fusion partners need not be part of it.

In the case of “P (HeV) wt, full length, Flag-tagged (from UniProt O55778 1-707)”, the binding result in assay [1] is recorded as “binds”.

On to “nucleoprotein (NP) from Zaire ebolavirus (ZEBOV), full length, Flag-tagged (from UniProt P18272 1-739)”, for which the binding entry in assay [2] and in assay [3] was “binds” in each case.
